Reference: PubChem BioAssay AID1259254 (NCATS, 2017)
This is an unselected part of about 59,000 reagents tested. About 1,550 of them (2.6%) were called active. 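G2 share is only a proxy for re-replication; each gene was hit by three separate siRNAs, and active genes were retested.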 A number with no mark means an inactive call. Reagents against one gene are numbered here. Further read-outs or replicates are left out here. Not given: the amount of reagent.

- Assay: 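Finding genes that stop cells copying their DNA twice in one cycle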 (primary screen)
- System: human HCT116 colorectal cancer cells
- Reagents: single siRNA against human genes
- Time to read-out: 3 days
- Measurement: 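Nuclei stained with Hoechst and imaged; cell-cycle phase assigned by DNA content; G2 share scaled per plate, non-targeting siRNA 0%, GMNN siRNA 100%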
- Scale: G2 robust z-score and G2 cells, % of GMNN control: higher = more G2 cells, more excess DNA replication
- Active means: 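An siRNA counts as active if its G2 robust z-score lies at least 5 MADs above the screen median; here such calls match roughly 38% of GMNN control or more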

| gene symbol | reagent | G2 robust z-score | G2 cells, % of GMNN control |
| --- | --- | --- | --- |
| CALML3 | 1 | -0.777 | -2.5 |
| CALML3 | 2 | 0.866 | 9.06 |
| CALML3 | 3 | -0.216 | 1.45 |
| ACAP1 | 1 | -0.233 | 1.33 |
| ACAP1 | 2 | 1.41 | 12.9 |
| ACAP1 | 3 | 1.45 | 13.2 |
| CARMIL2 | 1 | -0.56 | -0.974 |
| CARMIL2 | 2 | -0.313 | 0.763 |
| CARMIL2 | 3 | 1.47 | 13.3 |
| SPATA45 | 1 | 1.04 | 10.3 |
| SPATA45 | 2 | 1.41 | 12.9 |
| SPATA45 | 3 | 0.394 | 5.74 |
| RGS10 | 1 | 5.06 (active) | 38.6 |
| RGS10 | 2 | -0.288 | 0.938 |
| RGS10 | 3 | 0.942 | 9.59 |
| CCDC144NL | 1 | 0.307 | 5.13 |
| CCDC144NL | 2 | -0.774 | -2.47 |
| CCDC144NL | 3 | -0.992 | -4.01 |
| ICAM3 | 1 | 0.737 | 8.15 |
| ICAM3 | 2 | 1.52 | 13.6 |
| ICAM3 | 3 | -0.526 | -0.73 |
| HTR2A | 1 | 0.0777 | 3.51 |
| HTR2A | 2 | 0.602 | 7.2 |
| HTR2A | 3 | -0.559 | -0.968 |
| GSTA4 | 1 | -0.803 | -2.68 |
| GSTA4 | 2 | 1.12 | 10.8 |
| GSTA4 | 3 | -0.174 | 1.75 |
| NT5C3B | 1 | 1.96 | 16.8 |
| NT5C3B | 2 | -0.539 | -0.822 |
| NT5C3B | 3 | -0.531 | -0.772 |

Active calls (from the list above):
| gene symbol | reagent | G2 robust z-score | G2 cells, % of GMNN control |
| --- | --- | --- | --- |
| RGS10 | 1 | 5.06 (active) | 38.6 |
